In assay [1] the target is HA-V1B2 (HA-tagged V-ATPase V1 domain subunit B2, Atp6v1b2) (mouse) (UniProt P62814). Briefly: co-IP; anti-HA magnetic beads, HA-V1B2 as bait; lysates of iCas9 MEFs expressing HA-V1B2 and Flag-Voa1, Flag-Voa2 or Flag-Voa3, control or Wdr7, Dmxl1 or Dmxl2 iKO; V1-Vo IP buffer (40 mM HEPES pH 7.4, 150 mM NaCl, 2 mM EDTA, 2.5 mM MgCl2, 5% glycerol, 1% Triton X-100), 2 h at 4 °C; immunoblotting.

Sequences of proteins named here, by UniProt entry; tags and fusion partners are left off.
UniProt P62814: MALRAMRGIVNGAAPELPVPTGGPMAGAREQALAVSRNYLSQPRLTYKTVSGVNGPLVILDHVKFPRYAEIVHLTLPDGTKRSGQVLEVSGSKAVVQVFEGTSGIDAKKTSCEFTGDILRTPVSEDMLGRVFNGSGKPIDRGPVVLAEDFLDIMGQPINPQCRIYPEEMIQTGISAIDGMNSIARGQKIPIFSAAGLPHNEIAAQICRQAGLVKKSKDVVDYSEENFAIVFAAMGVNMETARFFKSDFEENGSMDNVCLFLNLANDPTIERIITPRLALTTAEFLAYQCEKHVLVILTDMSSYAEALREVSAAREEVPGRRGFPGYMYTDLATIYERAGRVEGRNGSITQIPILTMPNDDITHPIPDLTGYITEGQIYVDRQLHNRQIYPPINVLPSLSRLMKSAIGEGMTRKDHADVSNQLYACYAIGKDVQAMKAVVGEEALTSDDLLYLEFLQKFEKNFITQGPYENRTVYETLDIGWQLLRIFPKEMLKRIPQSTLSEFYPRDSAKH
UniProt P15920: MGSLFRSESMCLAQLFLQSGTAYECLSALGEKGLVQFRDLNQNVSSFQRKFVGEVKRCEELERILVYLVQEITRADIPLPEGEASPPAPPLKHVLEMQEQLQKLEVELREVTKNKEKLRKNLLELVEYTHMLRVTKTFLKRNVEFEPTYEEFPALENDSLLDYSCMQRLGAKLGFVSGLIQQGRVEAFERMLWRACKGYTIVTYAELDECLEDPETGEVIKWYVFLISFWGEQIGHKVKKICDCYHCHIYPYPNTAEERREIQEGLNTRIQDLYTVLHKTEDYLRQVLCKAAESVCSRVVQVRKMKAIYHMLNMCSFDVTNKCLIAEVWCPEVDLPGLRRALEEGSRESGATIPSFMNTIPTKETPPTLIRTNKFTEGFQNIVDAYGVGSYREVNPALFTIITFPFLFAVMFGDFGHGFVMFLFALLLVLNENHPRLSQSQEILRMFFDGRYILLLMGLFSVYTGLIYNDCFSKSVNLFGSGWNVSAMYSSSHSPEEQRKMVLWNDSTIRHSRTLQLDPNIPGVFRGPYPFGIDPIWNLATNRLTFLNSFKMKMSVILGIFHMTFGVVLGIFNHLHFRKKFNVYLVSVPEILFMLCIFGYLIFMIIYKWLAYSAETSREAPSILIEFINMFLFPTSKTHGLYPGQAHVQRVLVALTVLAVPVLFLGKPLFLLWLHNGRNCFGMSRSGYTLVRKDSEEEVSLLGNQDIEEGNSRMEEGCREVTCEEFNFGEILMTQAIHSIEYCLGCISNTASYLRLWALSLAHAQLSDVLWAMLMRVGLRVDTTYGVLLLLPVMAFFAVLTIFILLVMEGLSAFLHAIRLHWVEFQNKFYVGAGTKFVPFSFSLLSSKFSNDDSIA
UniProt Q9Z1G4: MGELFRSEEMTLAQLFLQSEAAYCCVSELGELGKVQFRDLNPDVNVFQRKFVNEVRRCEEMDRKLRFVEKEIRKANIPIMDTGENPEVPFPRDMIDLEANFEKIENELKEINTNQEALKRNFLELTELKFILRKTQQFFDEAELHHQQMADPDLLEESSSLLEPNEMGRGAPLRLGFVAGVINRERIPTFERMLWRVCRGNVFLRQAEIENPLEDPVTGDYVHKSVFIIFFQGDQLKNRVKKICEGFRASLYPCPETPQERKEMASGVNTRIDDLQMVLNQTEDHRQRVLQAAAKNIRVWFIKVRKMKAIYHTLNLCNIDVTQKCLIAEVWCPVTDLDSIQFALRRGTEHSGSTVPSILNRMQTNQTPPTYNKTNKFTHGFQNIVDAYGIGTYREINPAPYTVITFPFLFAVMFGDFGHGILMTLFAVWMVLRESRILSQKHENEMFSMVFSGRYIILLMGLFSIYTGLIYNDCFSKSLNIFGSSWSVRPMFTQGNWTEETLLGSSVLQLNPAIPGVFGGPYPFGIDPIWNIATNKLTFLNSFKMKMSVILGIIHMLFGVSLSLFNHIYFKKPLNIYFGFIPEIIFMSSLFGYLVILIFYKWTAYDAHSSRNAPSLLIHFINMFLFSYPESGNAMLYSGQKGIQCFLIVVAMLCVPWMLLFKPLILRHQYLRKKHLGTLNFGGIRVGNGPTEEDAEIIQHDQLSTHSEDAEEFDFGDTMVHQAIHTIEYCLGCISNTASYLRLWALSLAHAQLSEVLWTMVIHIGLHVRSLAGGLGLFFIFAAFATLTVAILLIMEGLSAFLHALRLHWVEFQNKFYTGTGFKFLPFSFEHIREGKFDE
UniProt Q920I9: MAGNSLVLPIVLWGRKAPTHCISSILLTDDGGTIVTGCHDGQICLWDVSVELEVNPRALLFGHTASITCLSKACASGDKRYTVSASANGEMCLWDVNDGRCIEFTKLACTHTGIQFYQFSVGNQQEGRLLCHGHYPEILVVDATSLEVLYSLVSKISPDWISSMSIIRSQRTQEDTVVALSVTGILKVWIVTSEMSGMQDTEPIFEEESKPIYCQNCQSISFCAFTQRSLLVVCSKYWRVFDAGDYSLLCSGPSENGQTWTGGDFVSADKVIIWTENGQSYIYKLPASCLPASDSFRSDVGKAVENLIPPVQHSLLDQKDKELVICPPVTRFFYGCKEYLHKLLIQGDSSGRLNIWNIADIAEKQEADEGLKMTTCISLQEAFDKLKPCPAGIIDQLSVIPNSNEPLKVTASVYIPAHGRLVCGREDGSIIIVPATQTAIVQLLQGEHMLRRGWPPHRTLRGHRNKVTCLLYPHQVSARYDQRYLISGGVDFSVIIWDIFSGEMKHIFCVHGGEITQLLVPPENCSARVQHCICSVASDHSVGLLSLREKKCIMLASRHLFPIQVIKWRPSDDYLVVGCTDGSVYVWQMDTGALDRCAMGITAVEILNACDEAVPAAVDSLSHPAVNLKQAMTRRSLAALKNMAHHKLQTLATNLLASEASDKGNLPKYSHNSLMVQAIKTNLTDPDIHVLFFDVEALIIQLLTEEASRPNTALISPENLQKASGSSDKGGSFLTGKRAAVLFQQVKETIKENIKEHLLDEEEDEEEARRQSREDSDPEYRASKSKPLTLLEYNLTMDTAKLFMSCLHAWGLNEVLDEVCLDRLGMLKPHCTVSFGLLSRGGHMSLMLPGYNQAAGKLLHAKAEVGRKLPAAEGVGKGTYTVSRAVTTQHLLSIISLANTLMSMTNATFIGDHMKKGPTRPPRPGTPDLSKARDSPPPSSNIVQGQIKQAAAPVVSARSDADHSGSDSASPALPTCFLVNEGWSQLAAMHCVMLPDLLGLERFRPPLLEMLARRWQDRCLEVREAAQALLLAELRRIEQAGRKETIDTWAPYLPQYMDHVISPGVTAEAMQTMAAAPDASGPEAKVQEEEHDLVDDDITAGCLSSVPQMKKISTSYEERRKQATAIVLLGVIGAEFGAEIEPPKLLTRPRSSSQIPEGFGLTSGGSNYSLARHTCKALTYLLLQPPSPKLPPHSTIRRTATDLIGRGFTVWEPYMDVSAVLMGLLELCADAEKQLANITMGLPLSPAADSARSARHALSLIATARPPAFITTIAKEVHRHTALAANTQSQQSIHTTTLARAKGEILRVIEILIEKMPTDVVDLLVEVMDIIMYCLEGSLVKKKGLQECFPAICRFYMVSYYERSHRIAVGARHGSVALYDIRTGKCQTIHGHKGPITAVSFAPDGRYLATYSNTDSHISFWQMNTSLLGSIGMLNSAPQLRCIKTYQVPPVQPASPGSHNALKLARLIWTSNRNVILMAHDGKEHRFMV

Assay [2] shares this target. As to the kind of experiment: co-IP; anti-HA magnetic beads, HA-V1B2 as bait; lysates of wild-type MEFs expressing HA-V1B2 and V5-Wdr7; V1-Wdr7 IP buffer (40 mM HEPES pH 7.4, 150 mM NaCl, 1% Triton X-100), 2 h at 4 °C; immunoblotting. In general terms: Immunoblotting shows a protein as a band on a membrane.

No constants are given. Whether binding was seen depends on the method and setting. Binding seen in cells or lysates may run through a third protein. Some binding calls cover weakened binding; strength is not graded here.

From publication PMC13534531 come the findings set out here.

Regarding “Flag-Voa2 (Flag-tagged V-ATPase Vo subunit a2, Atp6v0a2) (from UniProt P15920 1-856)”, in assay [1], the binding entry is “binds”.
Same read-out and setting: then “Flag-Voa1 (Flag-tagged V-ATPase Vo subunit a1, Atp6v0a1) (from UniProt Q9Z1G4 1-839)”, with “binds”.
For the substance “V5-Wdr7 (V5-tagged Wdr7) (from UniProt Q920I9 1-1489)”, the binding entry in assay [2] was “binds”.
